# Experimental data published in the supplement of paper PMC8728848.
# Some of the results follow.
# B1: C7A (Sus scrofa) (peptide)
# chain: KILRGVCKKIMRTFLRRISKKILTGKK
# Legend:
# Experiment in all cases: glycan array binding signal (z-score within array); higher = stronger binding
# Details in all cases: glycan notation: IUPAC condensed, linker removed; mutation: D21K
# [1] = target: GlcNAc(a1-6)Gal(b1-4)GlcNAc
# Method in brief: (§1)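 Glycan array binding is given as a within-array Z-score, which can be read as non-binding when negative. The arrays, 3228 of them, came from the Consortium for Functional Glycomics database and were retained only where the protein sequence was available. Z-scores were averaged across arrays of the same protein sequence at different concentrations or buffers and across linkers.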
# [2] = target: GlcNAc(b1-2)Gal(b1-3)GalNAc
# Method in brief: as §1
# [3] = target: GlcNAc(b1-2)Man(a1-3)[GlcNAc(b1-2)Man(a1-6)]Man(b1-4)GlcNAc(b1-4)GlcNAc
# Method in brief: as §1
# [4] = target: GlcNAc(b1-2)Man(a1-3)[GlcNAc(b1-2)Man(a1-6)]Man(b1-4)GlcNAc(b1-4)[Fuc(a1-6)]GlcNAc
# Method in brief: as §1
# [5] = target: GlcNAc(b1-2)Man(a1-3)[GlcNAc(b1-4)][GlcNAc(b1-2)Man(a1-6)]Man(b1-4)GlcNAc(b1-4)GlcNAc
# Method in brief: as §1
# [6] = target: GlcNAc(b1-2)Man(a1-3)[GlcNAc(b1-4)][GlcNAc(b1-2)Man(a1-6)]Man(b1-4)GlcNAc(b1-4)[Fuc(a1-6)]GlcNAc
# Method in brief: as §1
# [7] = target: GlcNAc(b1-2)[GlcNAc(b1-4)]Man(a1-3)[GlcNAc(b1-2)Man(a1-6)]Man(b1-4)GlcNAc(b1-4)GlcNAc
# Method in brief: as §1
# [8] = target: GlcNAc(b1-2)[GlcNAc(b1-4)]Man(a1-3)[GlcNAc(b1-4)][GlcNAc(b1-2)Man(a1-6)]Man(b1-4)GlcNAc(b1-4)GlcNAc
# Method in brief: as §1
# [9] = target: GlcNAc(b1-2)[GlcNAc(b1-4)]Man(a1-3)[GlcNAc(b1-4)][GlcNAc(b1-2)[GlcNAc(b1-6)]Man(a1-6)]Man(b1-4)GlcNAc(b1-4)GlcNAc
# Method in brief: as §1
# [10] = target: GlcNAc(b1-2)[GlcNAc(b1-4)]Man(a1-3)[GlcNAc(b1-4)][GlcNAc(b1-2)[GlcNAc(b1-6)]Man(a1-6)]Man(b1-4)GlcNAc(b1-4)[Fuc(a1-6)]GlcNAc
# Method in brief: as §1
# [11] = target: GlcNAc(b1-2)[GlcNAc(b1-6)]Man(a1-6)[GlcNAc(b1-2)Man(a1-3)]Man(b1-4)GlcNAc(b1-4)GlcNAc
# Method in brief: as §1
# [12] = target: GlcNAc(b1-2)[GlcNAc(b1-6)]Man(a1-6)[GlcNAc(b1-2)Man(a1-3)]Man(b1-4)GlcNAc(b1-4)[Fuc(a1-6)]GlcNAc
# Method in brief: as §1
# [13] = target: GlcNAc(b1-2)[GlcNAc(b1-6)]Man(a1-6)[GlcNAc(b1-4)][GlcNAc(b1-2)Man(a1-3)]Man(b1-4)GlcNAc(b1-4)GlcNAc
# Method in brief: as §1
# [14] = target: GlcNAc(b1-3)Fuc
# Method in brief: as §1
# [15] = target: GlcNAc(b1-3)Gal
# Method in brief: as §1
# [16] = target: GlcNAc(b1-3)Gal(b1-3)GalNAc
# Method in brief: as §1
# [17] = target: GlcNAc(b1-3)Gal(b1-4)Glc
# Method in brief: as §1
# [18] = target: GlcNAc(b1-3)Gal(b1-4)GlcNAc
# Method in brief: as §1
# [19] = target: GlcNAc(b1-3)Gal(b1-4)GlcNAc(b1-2)Man(a1-3)[GlcNAc(b1-3)Gal(b1-4)GlcNAc(b1-2)Man(a1-6)]Man(b1-4)GlcNAc(b1-4)GlcNAc
# Method in brief: as §1
# [20] = target: GlcNAc(b1-3)Gal(b1-4)GlcNAc(b1-2)Man(a1-3)[GlcNAc(b1-3)Gal(b1-4)GlcNAc(b1-2)Man(a1-6)]Man(b1-4)GlcNAc(b1-4)[Fuc(a1-6)]GlcNAc
# Method in brief: as §1
# [21] = target: GlcNAc(b1-3)Gal(b1-4)GlcNAc(b1-2)[GlcNAc(b1-3)Gal(b1-4)GlcNAc(b1-6)]Man(a1-6)[GlcNAc(b1-3)Gal(b1-4)GlcNAc(b1-2)Man(a1-3)]Man(b1-4)GlcNAc(b1-4)GlcNAc
# Method in brief: as §1
# [22] = target: GlcNAc(b1-3)Gal(b1-4)GlcNAc(b1-3)Gal(b1-4)GlcNAc
# Method in brief: as §1
# [23] = target: GlcNAc(b1-3)Gal(b1-4)GlcNAc(b1-3)Gal(b1-4)GlcNAc(b1-2)Man(a1-3)[GlcNAc(b1-3)Gal(b1-4)GlcNAc(b1-3)Gal(b1-4)GlcNAc(b1-2)Man(a1-6)]Man(b1-4)GlcNAc(b1-4)GlcNAc
# Method in brief: as §1
# [24] = target: GlcNAc(b1-3)Gal(b1-4)GlcNAc(b1-3)Gal(b1-4)GlcNAc(b1-2)Man(a1-3)[GlcNAc(b1-3)Gal(b1-4)GlcNAc(b1-3)Gal(b1-4)GlcNAc(b1-2)Man(a1-6)]Man(b1-4)GlcNAc(b1-4)[Fuc(a1-6)]GlcNAc
# Method in brief: as §1
# [25] = target: GlcNAc(b1-3)Gal(b1-4)GlcNAc(b1-3)Gal(b1-4)GlcNAc(b1-2)[GlcNAc(b1-3)Gal(b1-4)GlcNAc(b1-3)Gal(b1-4)GlcNAc(b1-6)]Man(a1-6)[GlcNAc(b1-3)Gal(b1-4)GlcNAc(b1-3)Gal(b1-4)GlcNAc(b1-2)Man(a1-3)]Man(b1-4)GlcNAc(b1-4)[Fuc(a1-6)]GlcNAc
# Method in brief: as §1
# [26] = target: GlcNAc(b1-3)Gal(b1-4)GlcNAc(b1-3)Gal(b1-4)GlcNAc(b1-3)Gal(b1-4)GlcNAc(b1-2)Man(a1-3)[GlcNAc(b1-3)Gal(b1-4)GlcNAc(b1-3)Gal(b1-4)GlcNAc(b1-3)Gal(b1-4)GlcNAc(b1-2)Man(a1-6)]Man(b1-4)GlcNAc(b1-4)GlcNAc
# Method in brief: as §1
binder,measurement,setting,value
B1,glycan array binding signal (z-score),[1],-1.5
same,glycan array binding signal (z-score),[2],-0.552
same,glycan array binding signal (z-score),[3],-0.062
same,glycan array binding signal (z-score),[4],-0.077
same,glycan array binding signal (z-score),[5],1.49
same,glycan array binding signal (z-score),[6],-0.3
same,glycan array binding signal (z-score),[7],0.556
same,glycan array binding signal (z-score),[8],0.383
same,glycan array binding signal (z-score),[9],0.206
same,glycan array binding signal (z-score),[10],-0.801
same,glycan array binding signal (z-score),[11],-0.74
same,glycan array binding signal (z-score),[12],-0.103
same,glycan array binding signal (z-score),[13],-0.656
same,glycan array binding signal (z-score),[14],-1.1
same,glycan array binding signal (z-score),[15],-1.53
same,glycan array binding signal (z-score),[16],-0.399
same,glycan array binding signal (z-score),[17],-0.83
same,glycan array binding signal (z-score),[18],-0.565
same,glycan array binding signal (z-score),[19],-0.861
same,glycan array binding signal (z-score),[20],1.47
same,glycan array binding signal (z-score),[21],-0.983
same,glycan array binding signal (z-score),[22],-0.763
same,glycan array binding signal (z-score),[23],1.46
same,glycan array binding signal (z-score),[24],2.43
same,glycan array binding signal (z-score),[25],1.7
same,glycan array binding signal (z-score),[26],1

# Two entries from above in another layout.
binder	measurement	setting	value
B1	glycan array binding signal (z-score)	[19]	-0.861
same	glycan array binding signal (z-score)	[20]	1.47
